No constants are given. Whether binding was seen depends on the method and setting. In cells and extracts the contact can be indirect. Some results given as binding are weak or reduced against the parent protein; the word gives no strength.
Biological target: FLAG-tagged MeCP2, full length (human) (UniProt P51608)
Experiment: co-IP; in vitro binding assay: in vitro transcribed and translated FLAG-tagged MeCP2 (or fragment) incubated with one HA-tagged SEC subunit in 250 ul IP buffer, 1 hour, 4°C; IP with FLAG antibody-conjugated beads, four washes; blots for HA and FLAG

The chains behind the UniProt entries cited, without tags or fusion partners.
UniProt P51608: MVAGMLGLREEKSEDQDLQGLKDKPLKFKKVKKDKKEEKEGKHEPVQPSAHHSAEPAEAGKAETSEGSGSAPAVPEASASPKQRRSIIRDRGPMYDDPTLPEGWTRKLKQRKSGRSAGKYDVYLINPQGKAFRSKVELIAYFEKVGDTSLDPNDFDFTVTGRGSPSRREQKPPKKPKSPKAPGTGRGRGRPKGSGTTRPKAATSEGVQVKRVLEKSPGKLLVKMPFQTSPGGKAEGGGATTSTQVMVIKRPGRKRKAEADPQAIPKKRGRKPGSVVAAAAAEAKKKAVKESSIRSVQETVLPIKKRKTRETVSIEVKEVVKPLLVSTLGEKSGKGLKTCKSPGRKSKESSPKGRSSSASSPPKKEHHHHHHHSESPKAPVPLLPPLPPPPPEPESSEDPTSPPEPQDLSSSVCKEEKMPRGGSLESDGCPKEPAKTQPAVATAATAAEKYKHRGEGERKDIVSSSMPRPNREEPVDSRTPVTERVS
UniProt O00472: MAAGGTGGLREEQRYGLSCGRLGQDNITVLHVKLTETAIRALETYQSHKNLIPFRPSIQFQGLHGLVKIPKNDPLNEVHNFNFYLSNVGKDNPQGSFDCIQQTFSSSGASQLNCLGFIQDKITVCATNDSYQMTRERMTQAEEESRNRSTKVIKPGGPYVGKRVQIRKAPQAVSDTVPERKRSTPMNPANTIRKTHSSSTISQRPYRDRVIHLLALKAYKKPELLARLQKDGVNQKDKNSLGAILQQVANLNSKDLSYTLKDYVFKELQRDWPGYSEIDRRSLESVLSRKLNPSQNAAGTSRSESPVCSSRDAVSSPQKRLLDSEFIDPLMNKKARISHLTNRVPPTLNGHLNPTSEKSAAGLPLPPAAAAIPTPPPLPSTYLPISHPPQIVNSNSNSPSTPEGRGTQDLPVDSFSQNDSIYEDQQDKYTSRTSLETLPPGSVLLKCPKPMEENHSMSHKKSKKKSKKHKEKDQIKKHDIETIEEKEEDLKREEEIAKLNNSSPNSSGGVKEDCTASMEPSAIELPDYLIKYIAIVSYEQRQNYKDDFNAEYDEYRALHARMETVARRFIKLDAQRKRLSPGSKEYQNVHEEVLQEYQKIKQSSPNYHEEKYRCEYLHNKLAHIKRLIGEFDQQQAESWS

HA-tagged ELL2 (from UniProt O00472 1-640)
binding: binds weakly

Source: article PMC12652325
